Reference: patent US7569225B2, “Immunogenic lipopeptides comprising T-helper and B-cell epitopes” (The Council of The Queensland Institute of Medical Research, priority 2002, dated 2009)
Values joined by “and” are separate entries in the source; they are usually repeats but may differ in a detail not shown here. Equal entries are not always repeated. Where two headings read alike, the source gives them in different places. Not every detail of the peptide structures is certain; ends, links or a residue may be inferred.

What was measured:
[1] = test system: female mice; assay type: in vivo, BALB/c mice; settings: for Pregnancy status (No. of animals per group that dropped litters): fertility experiment initiated two weeks after second dose; for Pregnancy No. animals per group that dropped litters: initiated two weeks after second dose; for Incidence of pregnancy 13 weeks after 2nd Dose / Incidence of pregnancy 2 weeks after 2nd Dose: 20 nmoles subcutaneously; for Incidence of pregnancy 13 weeks after 2nd Dose: animals per group of five; for Incidence of pregnancy 2 weeks after 2nd Dose: animals that dropped litters per group of five
[2] = test system: D1 cells; assay type: cell-based, BALB/c mouse

| Structure (SMILES) | Pregnancy status (No. of animals per group that dropped litters) ([1]; 1 nmole, subcutaneous) | Pregnancy status (No. of animals per group that dropped litters) ([1]; 10 nmole, subcutaneous) | Pregnancy No. animals per group that dropped litters ([1]; subcutaneous) | ability to cause maturation of DC / up-regulate MHC class II expression (FIG. 5) [2] | Incidence of pregnancy 13 weeks after 2nd Dose [1] | Incidence of pregnancy 13 weeks after 2nd Dose ([1]; listed as [Th]-Lys(Pam2Cys)[B]) | Incidence of pregnancy 2 weeks after 2nd Dose [1] | Incidence of pregnancy 2 weeks after 2nd Dose ([1]; listed as Pam2Cys-Ser-Ser-[Th]-[B]) | Pregnancy No. animals per group that dropped litters ([1]; […]) | Pregnancy No. animals per group that dropped litters ([1]; […], listed as Pam2Cys-Ser-Ser-[Th]-[B]) |
| --- | --- | --- | --- | --- | --- | --- | --- | --- | --- | --- |
| CCCCCCCCCCCCCCCC(=O)OCC(CSC[C@H](N)C(=O)N[C@@H](CO)C(=O)N[C@@H](CO)C(=O)NCCCC[C@H](NC(=O)[C@H](CO)NC(=O)[C@H](CCCCN)NC(=O)[C@H](CC(C)C)NC(=O)[C@H](CCC(=O)O)NC(=O)[C@@H](NC(=O)CNC(=O)[C@H](CCCCN)NC(=O)[C@@H](NC(=O)[C@H](CCC(N)=O)NC(=O)[C@H](Cc1ccccc1)NC(=O)[C@H](CCCNC(=N)N)NC(=O)[C@H](CC(N)=O)NC(=O)[C@H](CC(N)=O)NC(=O)[C@H](CC(C)C)NC(=O)[C@H](C)NC(=O)CN)[C@@H](C)CC)C(C)C)C(=O)N[C@@H](CCC(=O)O)C(=O)N[C@@H](Cc1c[nH]cn1)C(=O)N[C@@H](Cc1c[nH]c2ccccc12)C(=O)N[C@@H](CO)C(=O)N[C@@H](Cc1ccc(O)cc1)C(=O)NCC(=O)N[C@@H](CC(C)C)C(=O)N[C@@H](CCCNC(=N)N)C(=O)N1CCC[C@H]1C(=O)NCC(=O)O)OC(=O)CCCCCCCCCCCCCCC (stereo partly drawn) [[Th]-Lys(Pam2Cys-Ser-Ser)-[B]] | 1/5 | 0/5 | 0/5 | approaching the level observed for D1 cells challenged with lipopolysaccharide (LPS) |  |  |  |  |  |  |
| CCCCCCCCCCCCCCCC(=O)OCC(CSC[C@H](N)C(=O)NCCCC[C@H](NC(=O)[C@H](CO)NC(=O)[C@H](CCCCN)NC(=O)[C@H](CC(C)C)NC(=O)[C@H](CCC(=O)O)NC(=O)[C@@H](NC(=O)CNC(=O)[C@H](CCCCN)NC(=O)[C@@H](NC(=O)[C@H](CCC(N)=O)NC(=O)[C@H](Cc1ccccc1)NC(=O)[C@H](CCCNC(=N)N)NC(=O)[C@H](CC(N)=O)NC(=O)[C@H](CC(N)=O)NC(=O)[C@H](CC(C)C)NC(=O)[C@H](C)NC(=O)CN)[C@@H](C)CC)C(C)C)C(=O)N[C@@H](CCC(=O)O)C(=O)N[C@@H](Cc1c[nH]cn1)C(=O)N[C@@H](Cc1c[nH]c2ccccc12)C(=O)N[C@@H](CO)C(=O)N[C@@H](Cc1ccc(O)cc1)C(=O)NCC(=O)N[C@@H](CC(C)C)C(=O)N[C@@H](CCCNC(=N)N)C(=O)N1CCC[C@H]1C(=O)NCC(=O)O)OC(=O)CCCCCCCCCCCCCCC (some centres unmarked) [[Th]-Lys(Pam2Cys)-[B]] | 0 of 5 and 0/5 | 1 of 5 and 1/5 |  | intermediate levels of activation | 0/5 | still infertile | None of the mice and 0/5 |  |  |  |
| CCCCCCCCCCCCCCCC(=O)OCC(CSC[C@H](N)C(=O)N[C@@H](CO)C(=O)N[C@@H](CO)C(=O)NCC(=O)N[C@@H](C)C(=O)N[C@@H](CC(C)C)C(=O)N[C@@H](CC(N)=O)C(=O)N[C@@H](CC(N)=O)C(=O)N[C@@H](CCCNC(=N)N)C(=O)N[C@@H](Cc1ccccc1)C(=O)N[C@@H](CCC(N)=O)C(=O)N[C@H](C(=O)N[C@@H](CCCCN)C(=O)NCC(=O)N[C@H](C(=O)N[C@@H](CCC(=O)O)C(=O)N[C@@H](CC(C)C)C(=O)N[C@@H](CCCCN)C(=O)N[C@@H](CO)C(=O)N[C@@H](CCC(=O)O)C(=O)N[C@@H](Cc1c[nH]cn1)C(=O)N[C@@H](Cc1c[nH]c2ccccc12)C(=O)N[C@@H](CO)C(=O)N[C@@H](Cc1ccc(O)cc1)C(=O)NCC(=O)N[C@@H](CC(C)C)C(=O)N[C@@H](CCCNC(=N)N)C(=O)N1CCC[C@H]1C(=O)NCC(=O)O)C(C)C)[C@@H](C)CC)OC(=O)CCCCCCCCCCCCCCC (stereo partly drawn) [Pam2Cys-Ser-Ser-[Th]—[B]] |  |  | 0/5 | intermediate levels of activation | 2/5 |  | 1/5 | One mouse | 3/5 | 3 of 5 |
